According to the supplement of paper PMC9578143, “Small-Molecule Ebselen Binds to YTHDF Proteins Interfering with the Recognition of N^6-Methyladenosine-Modified RNAs” (ACS Pharmacology & Translational Science, 2022):
This is one part of the list. Baselines shift from plate to plate; read single values as rough.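 Hits were defined as a z-score below −3.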

biological target: T1, YTHDF1 YTH domain (aa 365-554) (UniProt Q9BYJ9); test: tryptophan fluorescence intensity z-score (mean); higher = higher fluorescence, less quenching (negative = binding / quenching); details: 10 µM
T1 sequence (whole entry): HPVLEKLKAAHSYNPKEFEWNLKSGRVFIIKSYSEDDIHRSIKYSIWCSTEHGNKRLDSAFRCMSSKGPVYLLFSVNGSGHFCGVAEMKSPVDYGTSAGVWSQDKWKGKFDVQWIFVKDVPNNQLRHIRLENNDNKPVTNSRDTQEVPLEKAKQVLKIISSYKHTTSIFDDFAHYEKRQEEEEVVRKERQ

Compound | tryptophan fluorescence intensity z-score
N#Cc1nn(-c2c(Cl)cc(C(F)(F)F)cc2Cl)c(N)c1[S+]([O-])C(F)(F)F (stereo unspecified) (plate: M 11-12) | inactive: -0.742
NCCc1cc(O)c(O)cc1O (plate: M 3-4) | inactive: -0.72
CC(C)=CCC[C@]1(C)C=Cc2c(O)c3c(c(CC=C(C)C)c2O1)O[C@]12C(=C[C@@H]4C[C@H]1C(C)(C)O[C@@]2(C/C=C(/C)C(=O)O)C4=O)C3=O (plate: M 15-16) | inactive: -1.35
C#CCOS(=O)OC1CCCCC1Oc1ccc(C(C)(C)C)cc1 (stereo unspecified) (plate: M 21-22) | inactive: 0.335
C=C(C)c1cc2cc(C(C)=O)c(O)cc2o1 (plate: M 17-18) | inactive: 0.43
Cc1cc(OC(=O)N2CCCCC2)c(C(C)C)cc1[N+](C)(C)C (plate: M 23-24) | inactive: -0.241
c1ccc2nc(N3CCNCC3)ccc2c1 (plate: M 9-10) | inactive: -0.0769
C[N+](C)(C)CCCCCCCCCC[N+](C)(C)C (plate: M 13-14) | inactive: 0.642
C[N+]1(C)[C@@H]2CC[C@H]1C[C@@H](OC(=O)C(CO)c1ccccc1)C2 (stereo partly specified) (plate: M 11-12) | inactive: 0.6
C[C@H]1CC[C@@]2(NC1)O[C@H]1C[C@H]3[C@@H]4CC[C@H]5C[C@@H](O)CC[C@]5(C)[C@H]4CC[C@]3(C)[C@H]1[C@@H]2C (plate: M 13-14) | inactive: 0.621
CN1C[C@H](C(=O)N[C@]2(C)O[C@@]3(O)[C@@H]4CCCN4C(=O)[C@H](Cc4ccccc4)N3C2=O)C[C@@H]2c3cccc4[nH]cc(c34)C[C@H]21 (plate: M 1-2) | inactive: -0.159
COc1cccc(C2(O)CCCCC2CN(C)C)c1 (stereo unspecified) (plate: M 11-12) | inactive: -0.242
CC(CCc1ccccc1)NC(C)C(O)c1ccc(O)cc1 (stereo unspecified) (plate: M 3-4) | inactive: 0.0946
O=c1ccc2c(O)c3ccoc3cc2o1 (plate: M 19-20) | inactive: -0.189
C/C=C(/C)C(=O)O[C@H]1CC[C@@]2(C)[C@@H]3CC[C@H]4[C@]5(O)C[C@H](O)[C@@]6(O)[C@@H](CN7C[C@@H](C)CC[C@H]7[C@@]6(C)O)[C@]5(O)C[C@@]42O[C@]13O (plate: M 19-20) | inactive: 0.0528
CCCC(C)C1(CC)C(=O)NC(=S)NC1=O (stereo unspecified) (plate: M 13-14) | inactive: 0.146
COc1cc([C@@H]2c3cc4c(cc3[C@H](O)[C@H]3COC(=O)[C@@H]23)OCO4)cc(OC)c1OC (plate: M 23-24) | inactive: 0.554
O=C1C=C2C=C[C@@H]3C[C@@]2(O1)[C@H]1CCCCN31 (plate: M 19-20) | inactive: 0.258
CC(C)=CC1C(C(=O)OCc2cccc(Oc3ccccc3)c2)C1(C)C (stereo unspecified) (plate: M 23-24) | inactive: 0.628
C[CH2][Hg][S]c1ccccc1C(=O)[O-].[Na+] (plate: M 5-6) | inactive: -1.38
CC1(C)C(=O)C=C[C@]2(C)[C@H]3CC[C@@]4(C)[C@H](c5ccoc5)OC(=O)[C@H]5O[C@]54[C@]3(C)[C@H](O)C[C@@H]12 (plate: M 13-14) | inactive: 0.54
CC[C@H](C)[C@H]1O[C@]2(C=C[C@@H]1C)C[C@@H]1C[C@@H](C/C=C(\C)[C@@H](O[C@H]3C[C@H](OC)[C@@H](O[C@H]4C[C@H](OC)[C@@H](O)[C@H](C)O4)[C@H](C)O3)[C@@H](C)/C=C/C=C3\CO[C@@H]4[C@H](O)C(C)=C[C@@H](C(=O)O1)[C@]34O)O2.CO[C@H]1C[C@H](O[C@H]2[C@H](C)O[C@@H](O[C@@H]3/C(C)=C/C[C@@H]4C[C@@H](C[C@]5(C=C[C@H](C)[C@@H](C(C)C)O5)O4)OC(=O)[C@@H]4C=C(C)[C@@H](O)[C@H]5OC/C(=C\C=C\[C@@H]3C)[C@]54O)C[C@@H]2OC)O[C@@H](C)[C@@H]1O (plate: M 7-8) | inactive: -0.136
Nc1ccncc1 (plate: M 7-8) | inactive: 0.383
COC(=O)[C@@H]1C[C@H](OC(C)=O)C(=O)[C@H]2[C@@]1(C)CC[C@H]1C(=O)O[C@H](c3ccoc3)C[C@]21C (plate: M 19-20) | inactive: 0.411
CC[C@@]1(O)C[C@H](O)c2c(cc3c(c2O)C(=O)c2c(O)ccc(O)c2C3=O)[C@H]1C(=O)OC (plate: M 15-16) | inactive: 0.521
O=C(O)CCCc1ccc(N(CCCl)CCCl)cc1 (plate: M 1-2) | inactive: 0.317

Five successive records out of the list so far, for reference:
Compound | tryptophan fluorescence intensity z-score
CC(C)=CCC[C@]1(C)C=Cc2c(O)c3c(c(CC=C(C)C)c2O1)O[C@]12C(=C[C@@H]4C[C@H]1C(C)(C)O[C@@]2(C/C=C(/C)C(=O)O)C4=O)C3=O (plate: M 15-16) | inactive: -1.35
C#CCOS(=O)OC1CCCCC1Oc1ccc(C(C)(C)C)cc1 (stereo unspecified) (plate: M 21-22) | inactive: 0.335
C=C(C)c1cc2cc(C(C)=O)c(O)cc2o1 (plate: M 17-18) | inactive: 0.43
Cc1cc(OC(=O)N2CCCCC2)c(C(C)C)cc1[N+](C)(C)C (plate: M 23-24) | inactive: -0.241
c1ccc2nc(N3CCNCC3)ccc2c1 (plate: M 9-10) | inactive: -0.0769
